Literature values, collected in patent US20110065787A1, “THERAPEUTIC AGENT FOR MALE STERILITY” (SBI ALApromo., Ltd., priority 2008, published 2011).
Where a name gives a salt, the structure may show the parent alone. For at least one compound, name, drawing or mass did not settle the structure.

Tested on: erectile dysfunction
Settings: 'it is said'; cited from earlier work

In the case of `CCCc1nn(C)c2c(=O)[nH]c(-c3cc(S(=O)(=O)N4CCN(C)CC4)ccc3OCC)nc12` [sildenafil, sildenafil citrate], the effectiveness is given as “about 50%”.
